At least one read-out could not be matched to a standard name with certainty.
Test system: Npas2-LacZ reporter gene (Npas2 expression)
Test: High throughput screening of FDA Approved Drug Library for Npas2-LacZ reporter expression
Type: cell-based, mouse
Details: Table 2; combined Z score (product)
Source text: Mouse MSC carrying Npas2-LacZ reporter gene, as described by Hassan N, et al., PLoS One. 2017; 12(8):e0183359, which is incorporated by reference herein in its entirety, was immortalized using SV40 in order to accommodate a large-scale HTS. […] This cell system was used to screen FDA Approved Drug Library (1120 compounds). The same library was also screened for cell viability by Calcein AM Hoechst 33342 staining Cell migration assays using the Oris™ Pro Cell Migration Assay plate, as described by Joy M E et al., PloS one. 2014; 9(2):e88350, which is incorporated by reference herein in its entirety, was used for a high-throughput migration assay using human skin fibroblasts
The combined Z score was used to identify hit compounds (Table 1).

SMILES | NpasZ × ViabilityZ
COc1cccc2c1C(=O)c1c(O)c3c(c(O)c1C2=O)C[C@@](O)(C(C)=O)C[C@@H]3O[C@H]1CC(N)[C@H](O)C(C)O1.Cl (stereo partly drawn) [Daunorubicin hydrochloride] | 11.172
CC(=O)OC1CN2CCC1CC2.Cl (stereo not drawn) [Aceclidine Hydrochloride] | −0.4356
C[C@@H]1C[C@@H]([C@H](O)CC2CC(=O)NC(=O)C2)C(=O)[C@@H](C)C1 [Cycloheximide] | 16.1539

— patent publication US20230013402A1, “REGENERATING FUNCTIONS AND PHENOTYPES OF CONNECTIVE TISSUE THROUGH NPAS2 SUPPRESSION” (The Regents of the University of California, priority 2019, published 2023)
